Assay results as given in PubChem BioAssay AID188 (DTP/NCI, 2004).
Shown are survivors of the treated group in tumour-free mice. Survivors were counted at the toxicity check, usually on the fifth day, unless a day is given; later deaths do not show. Schedules are NCI's codes, taken here to give the interval after Q, in days (D) or hours (H), and the number of doses after X.

Test system: CD2F1 mice, nontumored, toxicity/survival
Assay: NCI In Vivo Anticancer Drug Screen. Data for tumor model Nontumored Animals (Toxicity Test) in CD2F1 (CDF1) mice
[1] = dose: 1.0 mg/kg/injection, schedule: Q01DX009 (ip), vehicle: saline + alcohol

COC(=O)[C@@]12OC[C@]34[C@H]([C@@H](O)[C@@H]1O)[C@@]1(C)CC(=O)C(O)=C(C)[C@@H]1C[C@H]3OC(=O)[C@H](OC(=O)/C=C(\C)C(C)C)[C@@H]24
survivor count (dose: 0.03 mg/kg/injection, schedule: Q01DX009 (ip), vehicle: saline + alcohol): 8 of 8
survivor count (dose: 0.03 mg/kg/injection, schedule: Q01DX009 (ip), vehicle: saline with Tween-80): 8 of 8
survivor count (dose: 0.03 mg/kg/injection, schedule: Q03HX024 (ip), vehicle: saline + alcohol): 8 of 8
survivor count (dose: 0.06 mg/kg/injection, schedule: Q01DX009 (ip), vehicle: saline + alcohol): 8 of 8
survivor count (dose: 0.06 mg/kg/injection, schedule: Q01DX009 (ip), vehicle: saline with Tween-80): 8 of 8
survivor count (dose: 0.06 mg/kg/injection, schedule: Q01DX009 (sc), vehicle: saline + alcohol): 8 of 8
survivor count (dose: 0.06 mg/kg/injection, schedule: Q03HX016 (ip), vehicle: saline + alcohol): 8 of 8
survivor count (dose: 0.06 mg/kg/injection, schedule: Q03HX024 (ip), vehicle: saline + alcohol): 8 of 8
survivor count (dose: 0.13 mg/kg/injection, schedule: Q01DX009 (ip), vehicle: saline + alcohol): 8 of 8
survivor count (dose: 0.13 mg/kg/injection, schedule: Q01DX009 (ip), vehicle: saline with Tween-80): 8 of 8
survivor count (dose: 0.13 mg/kg/injection, schedule: Q01DX009 (sc), vehicle: saline + alcohol): 8 of 8
survivor count (dose: 0.13 mg/kg/injection, schedule: Q03HX008 (ip), vehicle: saline + alcohol): 7 of 8
survivor count (dose: 0.13 mg/kg/injection, schedule: Q03HX016 (ip), vehicle: saline + alcohol): 8 of 8
survivor count (dose: 0.13 mg/kg/injection, schedule: Q03HX024 (ip), vehicle: saline + alcohol): 8 of 8
survivor count (dose: 0.25 mg/kg/injection, schedule: Q01DX009 (ip), vehicle: saline + alcohol): 8 of 8
survivor count (dose: 0.25 mg/kg/injection, schedule: Q01DX009 (ip), vehicle: saline with Tween-80): 8 of 8
survivor count (dose: 0.25 mg/kg/injection, schedule: Q01DX009 (sc), vehicle: saline + alcohol): 8 of 8
survivor count (dose: 0.25 mg/kg/injection, schedule: Q03HX008 (ip), vehicle: saline + alcohol): 5 of 8
survivor count (dose: 0.25 mg/kg/injection, schedule: Q03HX016 (ip), vehicle: saline + alcohol): 5 of 8
survivor count (dose: 0.25 mg/kg/injection, schedule: Q03HX024 (ip), vehicle: saline + alcohol): 5 of 8
survivor count (dose: 0.25 mg/kg/injection, schedule: Q04DX003 (ip), vehicle: saline + alcohol): 8 of 8
survivor count (dose: 0.5 mg/kg/injection, schedule: Q01DX009 (ip), vehicle: saline + alcohol): 8 of 8
survivor count (dose: 0.5 mg/kg/injection, schedule: Q01DX009 (ip), vehicle: saline with Tween-80): 8 of 8
survivor count (dose: 0.5 mg/kg/injection, schedule: Q01DX009 (oral), vehicle: saline + alcohol): 8 of 8
survivor count (dose: 0.5 mg/kg/injection, schedule: Q01DX009 (sc), vehicle: saline + alcohol): 8 of 8
survivor count (dose: 0.5 mg/kg/injection, schedule: Q03HX008 (ip), vehicle: saline + alcohol): 8 of 8
survivor count (dose: 0.5 mg/kg/injection, schedule: Q03HX016 (ip), vehicle: saline + alcohol): 0 of 8
survivor count (dose: 0.5 mg/kg/injection, schedule: Q03HX024 (ip), vehicle: saline + alcohol): 1 of 8
survivor count (dose: 0.5 mg/kg/injection, schedule: Q04DX003 (ip), vehicle: saline + alcohol): 8 of 8
survivor count (dose: 0.5 mg/kg/injection, schedule: Q08DX002 (ip), vehicle: saline + alcohol): 8 of 8
survivor count (dose: 1.0 mg/kg/injection, schedule: Q01DX001 (ip), vehicle: saline + alcohol): 8 of 8
survivor count (dose: 1.0 mg/kg/injection, schedule: Q01DX001 (sc), vehicle: saline + alcohol): 8 of 8
survivor count [1]: 8 of 8
survivor count (dose: 1.0 mg/kg/injection, schedule: Q01DX009 (ip), vehicle: saline with Tween-80): 8 of 8
survivor count (dose: 1.0 mg/kg/injection, schedule: Q01DX009 (oral), vehicle: saline + alcohol): 8 of 8
survivor count (dose: 1.0 mg/kg/injection, schedule: Q01DX009 (sc), vehicle: saline + alcohol): 8 of 8
survivor count (dose: 1.0 mg/kg/injection, schedule: Q03HX008 (ip), vehicle: saline + alcohol): 0 of 8
survivor count (dose: 1.0 mg/kg/injection, schedule: Q03HX016 (ip), vehicle: saline + alcohol): 0 of 8
survivor count (dose: 1.0 mg/kg/injection, schedule: Q04DX003 (ip), vehicle: saline + alcohol): 8 of 8
survivor count (dose: 1.0 mg/kg/injection, schedule: Q08DX002 (ip), vehicle: saline + alcohol): 8 of 8
survivor count (dose: 2.0 mg/kg/injection, schedule: Q01DX001 (ip), vehicle: saline + alcohol): 8 of 8
survivor count (dose: 2.0 mg/kg/injection, schedule: Q01DX001 (sc), vehicle: saline + alcohol): 8 of 8
survivor count (dose: 2.0 mg/kg/injection, schedule: Q01DX009 (ip), vehicle: saline + alcohol): 8 of 8
survivor count (dose: 2.0 mg/kg/injection, schedule: Q01DX009 (ip), vehicle: saline with Tween-80): 8 of 8
survivor count (dose: 2.0 mg/kg/injection, schedule: Q01DX009 (oral), vehicle: saline + alcohol): 8 of 8
survivor count (dose: 2.0 mg/kg/injection, schedule: Q01DX009 (sc), vehicle: saline + alcohol): 8 of 8
survivor count (dose: 2.0 mg/kg/injection, schedule: Q03HX008 (ip), vehicle: saline + alcohol): 0 of 8
survivor count (dose: 2.0 mg/kg/injection, schedule: Q03HX016 (ip), vehicle: saline + alcohol): 0 of 8
survivor count (dose: 2.0 mg/kg/injection, schedule: Q04DX003 (ip), vehicle: saline + alcohol): 7 of 8
survivor count (dose: 2.0 mg/kg/injection, schedule: Q08DX002 (ip), vehicle: saline + alcohol): 8 of 8
survivor count (dose: 4.0 mg/kg/injection, schedule: Q01DX001 (ip), vehicle: saline + alcohol): 7 of 8
survivor count (dose: 4.0 mg/kg/injection, schedule: Q01DX001 (oral), vehicle: saline + alcohol): 8 of 8
survivor count (dose: 4.0 mg/kg/injection, schedule: Q01DX001 (sc), vehicle: saline + alcohol): 5 of 8
survivor count (dose: 4.0 mg/kg/injection, schedule: Q01DX009 (ip), vehicle: saline + alcohol): 4 of 8
survivor count (dose: 4.0 mg/kg/injection, schedule: Q01DX009 (ip), vehicle: saline with Tween-80): 4 of 8
survivor count (dose: 4.0 mg/kg/injection, schedule: Q01DX009 (oral), vehicle: saline + alcohol): 3 of 8
survivor count (dose: 4.0 mg/kg/injection, schedule: Q04DX003 (ip), vehicle: saline + alcohol): 8 of 8
survivor count (dose: 4.0 mg/kg/injection, schedule: Q08DX002 (ip), vehicle: saline + alcohol): 7 of 8
survivor count (dose: 8.0 mg/kg/injection, schedule: Q01DX001 (ip), vehicle: saline + alcohol): 2 of 8
survivor count (dose: 8.0 mg/kg/injection, schedule: Q01DX001 (oral), vehicle: saline + alcohol): 5 of 8
survivor count (dose: 8.0 mg/kg/injection, schedule: Q01DX001 (sc), vehicle: saline + alcohol): 0 of 8
survivor count (dose: 8.0 mg/kg/injection, schedule: Q01DX009 (oral), vehicle: saline + alcohol): 0 of 8
survivor count (dose: 8.0 mg/kg/injection, schedule: Q08DX002 (ip), vehicle: saline + alcohol): 1 of 8
survivor count (dose: 16.0 mg/kg/injection, schedule: Q01DX001 (ip), vehicle: saline + alcohol): 0 of 8
survivor count (dose: 16.0 mg/kg/injection, schedule: Q01DX001 (oral), vehicle: saline + alcohol): 0 of 8
survivor count (dose: 16.0 mg/kg/injection, schedule: Q01DX001 (sc), vehicle: saline + alcohol): 0 of 8
survivor count (dose: 16.0 mg/kg/injection, schedule: Q08DX002 (ip), vehicle: saline + alcohol): 0 of 8
survivor count (dose: 32.0 mg/kg/injection, schedule: Q01DX001 (oral), vehicle: saline + alcohol): 0 of 8
survivor count (dose: 64.0 mg/kg/injection, schedule: Q01DX001 (oral), vehicle: saline + alcohol): 0 of 8

C[C@]12CC[C@H](O)C[C@@]1(O)CC[C@@H]1[C@@H]2CC[C@]2(C)[C@@H](c3ccc(=O)oc3)C[C@H]3O[C@]132
survivor count (dose: 0.1 mg/kg/injection, schedule: Q01DX009 (ip), vehicle: saline + alcohol): 2 of 2
survivor count [1]: 2 of 2
survivor count (dose: 10.0 mg/kg/injection, schedule: Q01DX009 (ip), vehicle: saline + alcohol): 2 of 2
survivor count (dose: 50.0 mg/kg/injection, schedule: Q01DX009 (ip), vehicle: saline + alcohol): 0 of 2
survivor count (dose: 100.0 mg/kg/injection, schedule: Q01DX009 (ip), vehicle: saline + alcohol): 0 of 2

CN(C)/N=N/c1nc[nH]c1C(N)=O
survivor count (dose: 39.0 mg/kg/injection, schedule: Q01DX009 (ip), vehicle: Klucel (hydroxypropylcellulose) (HPC)): 10 of 10
survivor count (dose: 50.0 mg/kg/injection, schedule: Q02DX005 (ip), vehicle: Klucel (hydroxypropylcellulose) (HPC)): 4 of 4
survivor count (dose: 59.0 mg/kg/injection, schedule: Q01DX009 (ip), vehicle: Klucel (hydroxypropylcellulose) (HPC)): 10 of 10
survivor count (dose: 89.0 mg/kg/injection, schedule: Q01DX009 (ip), vehicle: Klucel (hydroxypropylcellulose) (HPC)): 10 of 10
survivor count (dose: 100.0 mg/kg/injection, schedule: Q02DX005 (ip), vehicle: Klucel (hydroxypropylcellulose) (HPC)): 4 of 4
survivor count (dose: 133.0 mg/kg/injection, schedule: Q01DX009 (ip), vehicle: Klucel (hydroxypropylcellulose) (HPC)): 10 of 10
survivor count (dose: 200.0 mg/kg/injection, schedule: Q01DX009 (ip), vehicle: Klucel (hydroxypropylcellulose) (HPC)): 10 of 10
survivor count (dose: 200.0 mg/kg/injection, schedule: Q02DX005 (ip), vehicle: Klucel (hydroxypropylcellulose) (HPC)): 4 of 4
survivor count (dose: 400.0 mg/kg/injection, schedule: Q02DX005 (ip), vehicle: Klucel (hydroxypropylcellulose) (HPC)): 4 of 4
